The test in a line: qHTS Assay for Lipid Storage Modulators in Drosophila S3 Cells.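 As to cell number change: cells counted by Cell Tracker Red CMTPX staining in the red channel.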 To be noted: BODIPY lipid droplet fluorescence, 18-24 h; for cell number change: measured here: cell count max response, cells fed with added oleic acid. The method in brief:
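Drosophila S3 cells loaded with oleic acid (400 uM, as added) and compounds at several concentrations; lipid droplets imaged by 488-nm laser-scanning cytometry, 500–530 nm intensity and object ratio to cell channel. Percent activity normalized to 20 uM Triacsin C.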
(In general: Quantitative high-throughput screening tests each substance at several concentrations.)

Where [1] appears, read: measured here: lipid fluorescence (Fed channel) AC50, cells fed with added oleic acid.
The mark [2] stands for this setting: measured here: cell number channel AC50, cells fed with added oleic acid.

The structures appear in SMILES notation. The list shows a part of the results. These are further read-outs of the screen, such as a control signal, another cell line or another target. No call is given for them. Most of these compounds were active or inconclusive in the main read-out, so they are no random draw. Words in brackets tell the shape of the fitted curve; partial curves, single points and poor fits give uncertain potencies.

The term AC50 denotes the midpoint of the concentration-response curve, whichever way the signal moves. A high value points to weaker potency.

Consider `Cc1nc(C)c(NC(=O)N2CCc3ccccc32)cc1NC(=O)N1CCc2ccccc21`, for which the cell number change is -0.443%. For the same molecule, the AC50 under setting [1] was 6.51 µM [rising, full curve, poor fit].

Regarding `O=C1CCC(=O)N1CN(C(=O)c1ccco1)c1ccc(Cl)c(Cl)c1`, the cell number change was -33.2%. Moreover, the AC50 under setting [2] is 0.82 µM [falling, full curve, poor fit]. Besides, under setting [1], the AC50 is 4.61 µM [falling, full curve, poor fit].

For the molecule `CC(NC(=O)c1cccnc1Sc1ccccc1)c1ccc(S(N)(=O)=O)cc1` (stereo not drawn), the cell number change worked out at 22.7%. Moreover, under setting [2], the AC50 is 4.11 µM [rising, full curve, poor fit]. Also, under setting [1], the AC50 is 18.4 µM [rising, partial curve].

Regarding `CCSC1=NC(=O)/C(=C2/C=Cc3ccccc3N2CC)S1`, the cell number change was -94.1%. Besides, the AC50 under setting [2] is 29.1 µM [falling, single point]. Besides, the AC50 under setting [1] is 29.1 µM [falling, single point].

With `CC12CCC(=O)N1C(C(=O)Nc1ccc(F)c(F)c1F)CS2` (stereo not drawn), the cell number change is -9.96%. In addition, the AC50 under setting [1] is 0.651 µM [falling, single point].

Take `O=C(COC(=O)c1cc([N+](=O)[O-])ccc1NCc1ccccc1Cl)NCC(F)(F)F`: the cell number change was -14.7%. For the same molecule, under setting [1], the AC50 is 7.31 µM [falling, partial curve, poor fit].

As for `Cc1cc(=O)n(CCO)c(O)c1C#N`, the cell number change is -6.72%. For the same molecule, under setting [1], the AC50 is 6.51 µM [falling, partial curve].

Turning to `Cn1nc([N+](=O)[O-])nc1Oc1ccccc1N`, the cell number change is 13%.

With `COc1ccc(S(=O)Cc2ccc(C(=O)N3CCN(C(=O)c4ccco4)CC3)o2)cc1` (stereo not drawn), the cell number change was -51%. For the same molecule, under setting [2], the AC50 is 29.1 µM [falling, single point]. In addition, the AC50 under setting [1] was 29.1 µM [falling, single point].

Take `Cc1nc2nc(-c3ccco3)[nH]n2c(=O)c1Cc1ccccc1`: the cell number change was -128%. Further, the AC50 under setting [2] was 23.1 µM [falling, partial curve]. In addition, the AC50 under setting [1] was 4.11 µM [falling, full curve].

With `CCOC(=O)C(=O)N/N=C(/c1ccccc1)c1ccc(OC)cc1`, the cell number change was -29.3%. The AC50 under setting [2] is 1.3 µM [falling, full curve, poor fit]. For the same molecule, the AC50 under setting [1] is 1.03 µM [falling, full curve, poor fit].

Consider `CC(C)(C)NC(=O)COC(=O)c1ccc(F)cc1Cl`, for which the cell number change is 12.9%.

For the molecule `COC(=O)c1c(NC(=O)c2nc3ccccc3s2)sc2c1CCN(C(C)=O)C2`, the cell number change was -37.8%. In addition, the AC50 under setting [2] is 23.1 µM [falling, partial curve]. Moreover, the AC50 under setting [1] is 3.66 µM [falling, full curve].

Take `O=C(O)CP(=O)(c1ccccc1)c1ccccc1`: the cell number change was -1.46%. The AC50 under setting [1] was 6.51 µM [falling, single point].

For `CSc1nc(O)cc(=O)n1-c1ccc(F)cc1`, the cell number change stood at 8.25%. In addition, the AC50 under setting [2] is 6.51 µM [falling, single point]. Moreover, the AC50 under setting [1] is 6.51 µM [falling, single point].

With `CC12CCC(=O)N1C(C(=O)Nc1nnc(SCc3ccccc3)s1)CS2` (stereo not drawn), the cell number change is -3.06%. For the same molecule, the AC50 under setting [1] is 0.103 µM [falling, full curve, poor fit].

Regarding `COC(=O)COc1ccc(S(=O)(=O)N2CCOCC2)cc1C`, the cell number change is -18.9%. For the same molecule, under setting [2], the AC50 was 0.0184 µM [falling, full curve, poor fit]. Under setting [1], the AC50 was 0.146 µM [falling, full curve].

With `O=C(NC1CCCC1)c1cccc(S(=O)(=O)N2CCCCC2)c1`, the cell number change is -8.02%. In addition, under setting [1], the half-maximal activity concentration (AC50) is 0.326 µM [falling, partial curve, poor fit].

As for `Cc1ccccc1NCC(=O)N/N=C/c1c(C)c(C(=O)c2ccc(Cl)cc2)n2ccccc12`, the cell number change is -2.73%.

As to `CCOC(=O)c1ccc(NC(=O)Cn2nnc(-c3ccccc3F)n2)cc1`, the AC50 was 1.64 µM [falling, single point] under setting [2] and 13 µM [rising, partial curve, poor fit] under setting [1].

Consider `CN(Cc1ccccn1)Cc1nc(COc2ccccc2)no1`, for which the cell number change was found to be 52.1%. The AC50 under setting [2] was 5.17 µM [rising, full curve]. The AC50 under setting [1] is 25.9 µM [rising, partial curve].

`Cc1ccc(CN(CC(=O)NC2CCCCC2)C(=O)c2csnn2)cc1`: the cell number change came to 6.84%. In addition, the AC50 under setting [1] is 3.66 µM [rising, partial curve].

Turning to `CC1(C)CC(=O)C2=C(C1)Nc1ncnn1C2c1cccs1` (stereo not drawn), the cell number change came out at 14.3%. Moreover, the AC50 under setting [1] is 0.731 µM [falling, single point].

Turning to `CCOC(=O)C1C(=O)NC(N2CCCCC2)=NC1c1ccco1` (stereo not drawn), the cell number change was -14.9%. For the same molecule, under setting [1], the AC50 was 0.00461 µM [falling, full curve, poor fit].

In the case of `COc1cc(OC)c(-c2nn3c(-c4ccco4)nnc3s2)cc1OC`, the cell number change was -18.3%. Besides, the AC50 under setting [1] is 18.4 µM [falling, single point].

Regarding `Cc1c(NC(=O)C(C)OC(=O)CCc2c[nH]c3ccccc23)c(=O)n(-c2ccccc2)n1C` (stereo not drawn), the cell number change was 16.5%. Moreover, the AC50 under setting [1] was 29.1 µM [rising, single point].

For the molecule `CCCCN(C)C(=O)c1cn(CC)c2nc(C)ccc2c1=O`, the cell number change is 30%. Further, the AC50 under setting [1] was 2.06 µM [rising, partial curve].

Take `Cc1cc(C)c(C(=O)NC2CCCc3c2cnn3-c2ccc(C)c(C)c2)c(=O)[nH]1` (stereo not drawn): the cell number change was -30.7%. Moreover, the AC50 under setting [1] was 29.1 µM [falling, single point].

Take `Fc1ccc(Nc2nc(-c3ccncc3)cs2)cc1`: the cell number change turned out to be 59.2%. Further, the AC50 under setting [2] was 0.366 µM [rising, full curve].

On to `COc1ccc(Nc2nc(-c3cccs3)nc3ccccc23)c(OC)c1`, for which the cell number change was found to be 3.34%. In addition, the AC50 under setting [1] was 6.51 µM [falling, single point].

As for `COc1ccc(C(=O)Oc2ccc(/C=N/Nc3ccc(Cl)c(C(=O)O)c3)cc2OC)cc1`, the cell number change worked out at 2.02%. Further, the AC50 under setting [1] is 4.61 µM [rising, full curve].

Turning to `Cc1nn(Cc2ccccc2)c(C)c1NC(=O)c1noc2c1CCc1ccccc1-2`, the cell number change was -24.6%.

For `O=C1OCCN/C1=C\C(=O)c1ccccc1`, the cell number change was -16.6%. Also, under setting [2], the AC50 is 5.8 µM [falling, single point]. Also, under setting [1], the AC50 is 6.51 µM [falling, single point].

As to `COc1cc(O)oc1C=Nc1ccc(Cl)cc1`, the cell number change was -14.1%. Moreover, the AC50 under setting [1] is 0.651 µM [falling, single point].

Regarding `COc1ccc(CCNC(=O)c2ccccc2NC(=O)c2ccco2)cc1OC`, the AC50 under setting [1] was 0.13 µM [falling, full curve, poor fit].

On to `CCCCCCCc1c(O)nc(SCCN(C)C)[nH]c1=O`, for which the cell number change amounted to 14.9%. The AC50 under setting [1] is 1.3 µM [rising, full curve, poor fit].

The values above are taken from PubChem BioAssay AID2685 (National Center for Advancing Translational Sciences (NCATS), 2010).
